We go through 2 compounds from patent publication US20240317746A1, “CRYSTALLINE FORMS OF AN AZETIDINE PARP1 INHIBITOR” (XinThera, Inc., priority 2023, published 2024).

A short description of series [1]: Polymorph screening (slurry conversion, cooling, evaporation, anti-solvent, cyclic heating-cooling, salt break). The protocol: Form I was obtained from most polymorph screening experiments. […]
Cyclic heating-cooling experiments were carried out in Crystal 16 Parallel Crystallizer. About 20 mg of Compound 1 (starting material) was added into 1 mL solvents, and a heating-cooling program was performed: • 1. Equilibrated first at 20° C., and heated to 75 or 100° C. at 0.2° C./min (the elevated temperature is set according to boiling point of solvent). • 2. Held at 75 or 100° C. for 1 h. • 3. Cooled to 20° C. at 0.2° C./min and hold for 1 h. • 4. Repeated the above procedures once.
Turbidimeter from Crystal 16 recorded if solids were completely dissolved during heating. Form I was obtained in most solvent systems. […]

Series [2] is described as follows: Salt screening and re-preparation of target forms. To be noted: RT. As to the method: Based on the results of pKa and estimated solubility, salts were prepared with 11 acids in three solvent systems of EtOH, THF and acetone/water (19/1, v/v).
Then 1.1 eq. of acid was added into the suspension at RT for reactive crystallization (liquid acid was diluted in corresponding solvent and added into the suspension), as well as additional 2.2 eq. of HCl. 0.5 mL more solvent was added to dilute several thick systems at 4 h (highlighted as * in the summary table). If clear solution or oil was obtained, various crystallization methods were used to induce precipitation. Solids were collected by filtration or centrifugation, and dried under vacuum at 40° C. for ˜4 h. The experimental details and characterization results are presented in the following parts.
Detailed experimental procedures are described in Table 32.

“Also recorded” adds a separate entry of the source.

With `C[C@@H]1[C@@H](Oc2ccc(C(=O)NC3CC3)nc2)CN1Cc1cnc2cc(Cl)c(=O)[nH]c2c1` [Compound 1, 5-(((2R,3S)-1-((7-chloro-6-oxo-5,6-dihydro-1,5-naphthyridin-3-yl)methyl)-2-methylazetidin-3-yl)oxy)-N-cyclopropylpicolinamide], the “Result of cyclic heating-cooling (solid form)” value in series [1] (2-MeTHF, 75° C.) is recorded as “Form I”; in series [1] (ACN/Water (9/1), 75° C.), “Form I”; in series [1] (DMAc/Toluene (1/2), 100° C.), “Solution”; in series [1] (EtOH, 75° C.), “Form I”; in series [1] (MEK, 75° C.), “Form I”; in series [1] (MIBK, 100° C.), “Form I”. The “Result of cyclic heating-cooling (solid form)” value in series [1] (n-Butanol/Anisole (1/1), 100° C.) is given as “Form I”.
On to `C[C@@H]1[C@@H](Oc2ccc(C(=O)NC3CC3)nc2)CN1Cc1cnc2cc(Cl)c(=O)[nH]c2c1` [Freebase Form I, 5-(((2R,3S)-1-((7-chloro-6-oxo-5,6-dihydro-1,5-naphthyridin-3-yl)methyl)-2-methylazetidin-3-yl)oxy)-N-cyclopropylpicolinamide], for which the “Salt screening result (solid form)” value in series [2] (Citric acid 1.1 eq., Acetone/Water (19/1)) is “Citrate Form I”; in series [2] (Citric acid 1.1 eq., EtOH), “FB Form I; also recorded: Freebase Form I”; in series [2] (Citric acid 1.1 eq., THF), “FB Form I; also recorded: Freebase Form I”; in series [2] (Fumaric acid 1.1 eq., Acetone/Water (19/1)), “FB Form I; also recorded: Freebase Form I”; in series [2] (Fumaric acid 1.1 eq., EtOH), “FB Form I; also recorded: Freebase Form I”; in series [2] (Fumaric acid 1.1 eq., THF) it was “FB Form I; also recorded: Freebase Form I”. The “Salt screening result (solid form)” value in series [2] (H2SO4 1.1 eq., THF) is “Amorphous”; in series [2] (H3PO4 1.1 eq., Acetone/Water (19/1)) it was “Amorphous *; also recorded: Amorphous”; in series [2] (H3PO4 1.1 eq., EtOH), “Amorphous *; also recorded: Amorphous”; in series [2] (H3PO4 1.1 eq., THF), “Amorphous *; also recorded: Amorphous”; in series [2] (L-Malic acid 1.1 eq., Acetone/Water (19/1)) it was “Malate Form I”; in series [2] (L-Malic acid 1.1 eq., EtOH), “FB Form I; also recorded: Freebase Form I”. Besides, the “Salt screening result (solid form)” value in series [2] (L-Malic acid 1.1 eq., THF) is recorded as “FB Form I; also recorded: Freebase Form I”; in series [2] (Maleic acid 1.1 eq., Acetone/Water (19/1)) it was “Maleate Form I”; in series [2] (PTSA 1.1 eq., Acetone/Water (19/1)), “Tosylate Form I”; in series [2] (PTSA 1.1 eq., EtOH), “Amorphous”; in series [2] (PTSA 1.1 eq., THF), “Amorphous”; in series [2] (Succinic acid 1.1 eq., Acetone/Water (19/1)), “FB Form I; also recorded: Freebase Form I”. In addition, the “Salt screening result (solid form)” value in series [2] (Succinic acid 1.1 eq., EtOH) was “FB Form I; also recorded: Freebase Form I”; in series [2] (Succinic acid 1.1 eq., THF), “FB Form I; also recorded: Freebase Form I”; in series [2] (no acid, Acetone/Water (19/1)), “FB Form I”; in series [2] (no acid, EtOH), “FB Form I”; in series [2] (no acid, THF), “FB Form I”.
